Measured values reported in PubChem BioAssay AID504444 (National Center for Advancing Translational Sciences (NCATS), 2011).
Hit rate of the full screen: of about 360,000 compounds, about 7,500 (2.1%) were called active. Inconclusive means that the source gave no clear call. Such entries were picked first, then a sample of the others. The call rests on the fitted dose curve; in most records, active means well fitted inhibition curve with a large enough effect; inconclusive means small, poorly fitted or top-dose-only effect, or effect the other way; inactive means flat fitted curve, though single readings scatter. A potency beside an inconclusive call is a rough fit, not a confirmed value.

Assay: Nrf2 qHTS screen for inhibitors; further: nearly all actives have a fitted effect of over 60% in size
Settings: A549 ARE-Fluc reporter, luciferase luminescence, 18-24 h; series mostly up to 46 µM
In short: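 Nrf2 function is reported as luminescence of an ARE-controlled luciferase in A549 cells. Compounds were tested at several concentrations, and a CellTiter-Fluor read on the same wells flagged cytotoxicity.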
Potency means the concentration at half of the fitted maximal effect.

| SMILES | Potency |
| --- | --- |
| O=C(CSc1nc2ccccc2c(=O)n1-c1ccccc1F)Nc1ccc2c(c1)CCC2 | inconclusive: 4.11 µM [falling, full curve, poor fit] |
| O=C(CN1CCN(c2ccc(Cl)cc2)CC1)Nc1ccc(F)cc1 | inconclusive: 29.1 µM [falling, single point] |
| CCC1CCCCN1S(=O)(=O)c1ccc2[nH]c(=O)ccc2c1 (stereo not given) | inactive |
| O=C(CSc1nnc(-c2ccc(O)cc2)o1)Nc1ccccc1 | inconclusive: 29.1 µM [activator, single point] |
| O=S(=O)(c1ccc(F)cc1)n1ccc(-c2cccc(OCc3c(F)cccc3Cl)c2)n1 | inconclusive: 5.8 µM [falling, partial curve, poor fit] |
| Cn1cccc1C1C=C(c2ccc(C(C)(C)C)cc2)Nc2ncnn21 (stereo not given) | inconclusive: 29.1 µM [falling, single point] |
| O=C(NN=Cc1ccccc1Cl)c1ccc(-n2cnnn2)cc1 | inconclusive: 0.146 µM [falling, full curve, poor fit] |
| CC1CCCCN1C(=O)c1cc(-c2ccc(Cl)c(Cl)c2)on1 (stereo not given) | inconclusive: 10.3 µM [activator, partial curve] |
| Cc1cccc(N2CCN(C(=O)c3ccc4ncsc4c3)CC2)c1C | inactive |
| O=C(NCc1cccnc1)C1CCCN(S(=O)(=O)c2ccccc2)C1 (stereo not given) | inconclusive: 0.058 µM [falling, full curve, poor fit] |
| CCN(CC)CCCNc1oc(/C=C/c2ccccc2)nc1C#N | inactive |
| COc1ccc(Br)cc1CNC(=O)CCCn1c(=O)c2cccn2c2cccnc21 | inconclusive: 18.4 µM [falling, single point] |
| CC(C)Oc1cccc(C(=O)NC2=NCCS2)c1 | inconclusive: 2.59 µM [activator, full curve] |
| Cc1cccc(CC(Cc2nc3ccccc3[nH]2)c2nc3ccccc3[nH]2)c1 (stereo not given) | active: 25.9 µM |
| Fc1ccc(CNc2nc(-c3ccco3)cc(C(F)(F)F)n2)cc1 | inconclusive: 13 µM [falling, partial curve, poor fit] |
| O=C(N/N=C/c1ccc2ncccc2c1)c1cc(-c2cccs2)nc2ccccc12 | inactive |
| Cc1c(S(=O)(=O)Nc2ccc(Oc3ccccc3)cc2)c(=O)n(C)c(=O)n1C | inactive |
| CCOC(=O)C1(CCOC)CCN(Cc2ccc(C3CCCCO3)s2)CC1 (stereo not given) | inconclusive: 29.1 µM [activator, single point] |
| Cc1ccc(NC(=O)COc2ccc3c(c2)OCO3)c(Cl)c1 | inconclusive: 16.4 µM [activator, partial curve] |
| Cc1cc(N2CCCCCC2)nc(-c2ccccc2O)n1 | inconclusive: 4.61 µM [activator, partial curve, poor fit] |
| CC1Cc2ccccc2N1S(=O)(=O)c1cccc2nsnc12 (stereo not given) | inconclusive: 25.9 µM [falling, single point] |
| COC(=O)c1ccc(OCC(=O)c2ccccc2)cc1 | inconclusive: 1.03 µM [activator, full curve] |

Molecules shown so far with an NH in an aromatic ring:

| SMILES | Potency |
| --- | --- |
| CCC1CCCCN1S(=O)(=O)c1ccc2[nH]c(=O)ccc2c1 (stereo not given) | inactive |
| Cc1cccc(CC(Cc2nc3ccccc3[nH]2)c2nc3ccccc3[nH]2)c1 (stereo not given) | active: 25.9 µM |

(continued)

| SMILES | Potency |
| --- | --- |
| CCc1cc(C(=O)N2CCN(c3ccccc3OC)CC2)sc1C | inactive |
| COC(=O)N/N=C/c1cc(Cl)cc(Cl)c1OCc1ccccc1F | inconclusive: 29.1 µM [falling, single point] |
| Cc1cccc2nc(C(=O)Nc3cccc(C(=O)NC4CC4)c3)cn12 | inconclusive: 29.1 µM [falling, single point] |
| Cc1ccc(CNc2ccc(-c3nc(-c4cccnc4)no3)cc2[N+](=O)[O-])cc1 | active: 29.1 µM |
| CCN(CC)S(=O)(=O)c1ccc2c(c1)N(CC(=O)Nc1ccc(F)cc1F)C(=O)C1CCCN21 (stereo not given) | inconclusive: 23.1 µM [activator, partial curve, poor fit] |
| CC1=C(C#N)C(c2ccc(O)cc2)C2=C(CC(C)(C)CC2=O)N1 (stereo not given) | inconclusive: 25.9 µM [activator, partial curve, poor fit] |
| Cc1cc(=O)[nH]c2c1c(C)nn2C1CCOC(C)(C)C1 (stereo not given) | inconclusive: 5.8 µM [activator, single point] |
| O=C(Nc1ccc(S(=O)(=O)C(F)F)cc1)c1cccc(S(=O)(=O)N2CCOCC2)c1 | inconclusive: 29.1 µM [falling, single point] |
| Cc1cc(C)c2oc(-c3ccc(NC(=O)c4cc(Br)ccc4Cl)cc3)nc2c1 | active: 5.8 µM |
| CCCCN(CC(=O)NCc1ccc(Cl)cc1)S(=O)(=O)c1ccc2c(c1)OCCO2 | inactive |
| Cc1ccc(NC(=O)CCc2nc3cccnc3n2-c2ccccc2)cc1 | inconclusive: 25.9 µM [falling, single point] |
| CCOC(=O)C1CCCN(CC(=O)Nc2c(C(=O)OC)[nH]c3ccc(C)cc23)C1 (stereo not given) | inactive |
| COc1cc(-c2cc(C(=O)Nc3ccc(S(=O)(=O)NCc4ccco4)cc3)c3ccccc3n2)cc(OC)c1OC | inconclusive: 29.1 µM [falling, single point] |
| Cc1ccc(S(=O)(=O)N(CC(=O)N2CCC(C)CC2)Cc2ccccc2F)cc1 | inconclusive: 29.1 µM [falling, single point] |
| CCCCN(C)S(=O)(=O)c1ccc(C(=O)Nc2nnc(C3=COCCO3)o2)cc1 | inconclusive: 23.1 µM [falling, partial curve, poor fit] |
| Cn1c(=O)c2c(ncn2CC(=O)Nc2cccc(S(=O)(=O)Nc3ccccc3F)c2)n(C)c1=O | inconclusive: 0.291 µM [falling, full curve, poor fit] |
| CC1CC1C(=O)OCC(=O)Nc1cccc(F)c1 (stereo not given) | inconclusive: 32.6 µM [activator, single point] |
| O=C(CC(c1cccs1)N1Cc2ccccc2C1=O)Nc1ccc(Cl)cc1 (stereo not given) | inactive |
| O=C(CNC(=O)c1ccccc1)c1ccccc1 | inconclusive: 0.731 µM [activator, full curve] |
| CC1CCC2(CC1)NC(=O)N(NC(=O)C1CCN(C(=O)c3ccc(Cl)cc3)CC1)C2=O (stereo not given) | inconclusive: 20.6 µM [falling, partial curve, poor fit] |
| O=C(Nc1ccc(F)cc1F)C1CCN(c2ncnc3c2sc2cccc(F)c23)CC1 | inconclusive: 29.1 µM [falling, single point] |
| CCCC(C(=O)NC1CCCC1)N(C(=O)Cn1nnc(-c2ccc(C)o2)n1)C1CCCC1 (stereo not given) | inactive |

A portion taken from the entries so far, for reference:

| SMILES | Potency |
| --- | --- |
| COC(=O)N/N=C/c1cc(Cl)cc(Cl)c1OCc1ccccc1F | inconclusive: 29.1 µM [falling, single point] |
| Cc1cccc2nc(C(=O)Nc3cccc(C(=O)NC4CC4)c3)cn12 | inconclusive: 29.1 µM [falling, single point] |

Going on with the list.

| SMILES | Potency |
| --- | --- |
| COC(=O)c1c(NC(=O)c2ccc([N+](=O)[O-])o2)sc2c1CCN(C(C)C)C2 | inconclusive: 20.6 µM [falling, single point] |
| Cc1cccc(N2Cc3ccccc3C2=NC(=O)c2ccc(Cl)nc2)c1 | inconclusive: 18.4 µM [activator, partial curve, poor fit] |
| CN(C)CCN(C)Cc1ccccc1Sc1cccc2ccccc12 | inactive |
| COc1ccc(-c2c(-c3cc(OC)cc(OC)c3)n(C)c3ccc(-c4ccn[nH]4)cc23)cc1 | active: 11.6 µM |
| COc1ccc(/C=C/C(=O)c2c(C)cc(C)[nH]c2=O)c2ccccc12 | inconclusive: 10.3 µM [falling, partial curve, poor fit] |
| O=C(CN1C(=O)c2cccc3cccc(c23)C1=O)N1CCN(Cc2ccc3c(c2)OCO3)CC1 | inconclusive: 20.6 µM [falling, single point] |
| Cc1csc(NC(=O)CSc2ccc(-c3ccc(F)cc3)nn2)n1 | inconclusive: 7.31 µM [falling, partial curve, poor fit] |
| CCN(CC)c1ccc(NC(=O)COCc2cc(-c3ccc4c(c3)OCO4)on2)c(C)c1 | inconclusive: 29.1 µM [falling, single point] |
| COCCN(CCOC)c1ncc(Cl)c(C(=O)c2c(C)cc3ccccn23)n1 | inconclusive: 25.9 µM [falling, partial curve, poor fit] |
| Cc1ccc(C)c(NC(=O)CSc2nc3nc(-c4cccs4)cc(C(F)(F)F)c3c(=O)[nH]2)c1 | inconclusive: 32.6 µM [falling, single point] |
| COc1ccc(Cc2nc(-c3ccc(Br)o3)no2)cc1OC | inconclusive: 9.2 µM [activator, partial curve] |
| O=C1CCNc2cc3ccccc3cc21 | inconclusive: 32.6 µM [falling, single point] |
| O=C(C[n+]1cc(-c2ccc(F)cc2)n2c1CCC2)c1cccs1 | inconclusive: 25.9 µM [activator, single point] |
| Cc1ccc(N2CCN(C(=O)c3c(C)oc4ncn(C)c(=O)c34)CC2)c(C)c1 | inconclusive: 20.6 µM [activator, partial curve] |
| CC1=CC(C)(C)N2C(=O)C3(C(C#N)=C(N)OC4=C3C(=O)CC(C)(C)C4)c3cc(C)cc1c32 (stereo not given) | inconclusive: 20.6 µM [falling, single point] |
| FC(F)(Cl)c1nnc2ccc(Cl)nn12 | inactive |
| C=CCn1cc(C(=O)N2CCc3ccccc3C2)c(=O)c2cc(S(=O)(=O)N(CC)CC)ccc21 | inconclusive: 20.6 µM [falling, single point] |
| CC(N=Cc1cccc(O)c1O)c1ccccc1 (stereo not given) | inconclusive: 29.1 µM [falling, single point] |
| COc1ccc(/C(C)=N/NC(=O)CCC(=O)Nc2ccc(Cl)cc2Cl)c(OC)c1 | inconclusive: 9.2 µM [falling, partial curve, poor fit] |
| Nc1ccc(N=Nc2ccccc2Cl)c(N)n1 | inconclusive: 18.4 µM [activator, partial curve, poor fit] |
| CC(C)Cc1nnc(NC(=O)c2ccc3c(c2)OCCO3)s1 | inconclusive: 8.2 µM [activator, partial curve] |
